Results are given in words; binding and its absence hold for the method and conditions named. Binding seen in cells or lysates may run through a third protein. A yes stands for co-enrichment or nearness to the bait. Other partners may have been found. Where a sequence is shown, tags or fusion partners need not be part of it.
These substances were tested against T1, HA-PRR11-WT (proline-rich 11) (human) (UniProt Q96HE9) (assay: affinity purification with mass spectrometry; HA-PRR11 (HA-Vector as control) transfected into 293T cells for 48 h; co-IP with HA antibody, SDS-PAGE, silver staining, timsTOF Pro mass spectrometry).
T1 sequence: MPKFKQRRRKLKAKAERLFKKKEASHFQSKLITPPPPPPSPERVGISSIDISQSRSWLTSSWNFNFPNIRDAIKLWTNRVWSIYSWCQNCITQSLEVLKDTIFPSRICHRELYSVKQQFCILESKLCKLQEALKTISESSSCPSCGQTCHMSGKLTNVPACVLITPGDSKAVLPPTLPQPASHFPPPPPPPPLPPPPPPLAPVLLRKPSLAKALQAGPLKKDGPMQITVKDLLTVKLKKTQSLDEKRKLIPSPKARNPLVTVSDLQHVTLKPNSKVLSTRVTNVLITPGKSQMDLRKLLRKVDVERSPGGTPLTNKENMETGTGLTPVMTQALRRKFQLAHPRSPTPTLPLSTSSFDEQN

Chains of the proteins cited; added tags and fusions are not shown.
UniProt P49841: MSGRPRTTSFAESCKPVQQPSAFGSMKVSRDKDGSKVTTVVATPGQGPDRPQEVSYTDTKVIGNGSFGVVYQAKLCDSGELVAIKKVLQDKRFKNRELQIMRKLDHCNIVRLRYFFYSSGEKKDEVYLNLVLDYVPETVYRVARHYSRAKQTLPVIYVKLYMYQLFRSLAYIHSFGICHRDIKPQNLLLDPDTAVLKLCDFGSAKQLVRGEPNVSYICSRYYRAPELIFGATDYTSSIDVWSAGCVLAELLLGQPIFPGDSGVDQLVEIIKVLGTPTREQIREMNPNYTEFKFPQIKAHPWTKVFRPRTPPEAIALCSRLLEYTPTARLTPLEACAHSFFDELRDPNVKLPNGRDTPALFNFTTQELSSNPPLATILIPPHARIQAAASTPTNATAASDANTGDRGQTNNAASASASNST
UniProt Q92747: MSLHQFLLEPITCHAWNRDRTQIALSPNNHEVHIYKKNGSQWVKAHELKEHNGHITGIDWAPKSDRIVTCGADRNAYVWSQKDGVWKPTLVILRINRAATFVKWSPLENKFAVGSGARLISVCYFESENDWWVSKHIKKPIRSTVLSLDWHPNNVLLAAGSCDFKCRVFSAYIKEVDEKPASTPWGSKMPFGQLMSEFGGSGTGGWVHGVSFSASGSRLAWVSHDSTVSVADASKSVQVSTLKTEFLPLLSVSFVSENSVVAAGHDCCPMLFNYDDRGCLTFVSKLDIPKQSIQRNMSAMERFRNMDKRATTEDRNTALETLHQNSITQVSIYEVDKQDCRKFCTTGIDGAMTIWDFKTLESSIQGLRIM
UniProt Q969H0: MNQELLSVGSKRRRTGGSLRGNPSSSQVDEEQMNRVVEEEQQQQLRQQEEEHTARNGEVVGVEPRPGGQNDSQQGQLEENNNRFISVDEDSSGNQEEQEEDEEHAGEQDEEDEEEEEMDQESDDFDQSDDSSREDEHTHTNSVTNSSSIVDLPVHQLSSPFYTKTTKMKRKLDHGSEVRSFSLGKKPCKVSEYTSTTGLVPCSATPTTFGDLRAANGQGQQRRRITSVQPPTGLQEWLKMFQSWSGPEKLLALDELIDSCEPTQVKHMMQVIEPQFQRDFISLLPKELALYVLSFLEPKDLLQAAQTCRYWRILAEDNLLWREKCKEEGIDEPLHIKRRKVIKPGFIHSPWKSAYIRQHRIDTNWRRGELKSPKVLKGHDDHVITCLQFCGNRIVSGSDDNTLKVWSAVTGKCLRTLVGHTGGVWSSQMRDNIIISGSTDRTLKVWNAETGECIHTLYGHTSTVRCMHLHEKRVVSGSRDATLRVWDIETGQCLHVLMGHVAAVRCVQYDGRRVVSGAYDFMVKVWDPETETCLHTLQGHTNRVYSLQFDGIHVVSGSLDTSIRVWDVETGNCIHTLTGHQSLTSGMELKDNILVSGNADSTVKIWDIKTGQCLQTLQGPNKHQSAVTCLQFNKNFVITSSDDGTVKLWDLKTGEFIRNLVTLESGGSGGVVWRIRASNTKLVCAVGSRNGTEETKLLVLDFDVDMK

Row | Substance | binding
1 | endogenous GSK3β (from UniProt P49841 1-420) | binds
2 | ARPC1A (from UniProt Q92747 1-370) | binds
3 | endogenous FBXW7 (from UniProt Q969H0 1-707) | binds
4 | ARPC1B (from UniProt O15143 1-372) | binds

Source: PMC11898301
